# Source: patent publication US20250304545A1, “WATER-SOLUBLE HETEROCYCLYL POLYMETHINE CHROMOPHORES” (The Regents of the University of California, priority 2022, published 2025)
# Some entries share one result that the patent states for a list of compounds. At least one compound was matched to its structure with a doubt left.
# Assays:
# [1] = Photophysical characterization of Chrom7 dyes (absorption, emission, quantum yield); assay type: physicochemical; details: in FBS
# Excerpt: (§1) Absorption spectra were collected on a JASCO V-770 UV-visible/NIR spectrophotometer after blanking with the appropriate solvent. Photoluminescence spectra were obtained on a Horiba Instruments PTI QuantaMaster Series fluorometer. Fetal bovine serum (FBS) or bovine serum were purchased from Gibco. Quartz cuvettes (10 mm×10 mm) were used for absorption and photoluminescence measurements unless otherwise noted. All spectra were obtained at ambient temperature. Fluorescence quantum yield was measured with 830 nm excitation using Flav7 as a reference (ΦF=0.61%).
# [2] = Aggregation / monomeric dispersion by absorption spectra in water, MeOH/H2O and serum; assay type: physicochemical; details: in FBS
# Excerpt: as §1
# HEK293 cells = experiment: MTT toxicity assay; assay type: cell-based; details: 20 μM, 18 h
# Method: HEK293 cells were split into three cultures as replicates. For each replicate, HEK293 cells were passed onto flat-bottomed 96-well plate to 40-50% confluency and left 6 h for adhesion. Different concentrations of compounds were added to the medium (1:40 dilution from aqueous stock solution) in quadruplicate and incubated for 18 h. After incubation, cells were treated with 100 μL of full media containing 0.5 mg/mL MTT for 2 h, followed by addition of 100 μL of aqueous solution containing 10% SDS and 1:1000 HCl. After 3-4 h incubation, cell viability was determined by measuring the absorbance at 490 nm using a plate reader.
structure (smiles),measurement,setting,value
Cc1ccccc1C1=C(C=Cc2cc(C(C)(C)C)[o+]c3cc(N(Cc4cn(CCCS(=O)(=O)[O-])nn4)Cc4cn(CCCS(=O)(=O)[O-])nn4)ccc23)CCCC1=CC=C1C=C(C(C)(C)C)Oc2cc(N(Cc3cn(CCCS(=O)(=O)[O-])nn3)Cc3cn(CCCS(=O)(=O)[O-])nn3)ccc21.[Na+].[Na+].[Na+] [SulfoChrom7],quantum yield,[1],above 0.5%
same,concentration up to which monomeric absorption is observed,[2],up to 8 μM
same,growth inhibition,HEK293 cells,< 15%
Cc1ccccc1C1=C(C=Cc2cc(C(C)(C)C)[o+]c3cc(N(Cc4cn(CCC[N+](C)(C)CCCS(=O)(=O)[O-])nn4)Cc4cn(CCC[N+](C)(C)CCCS(=O)(=O)[O-])nn4)ccc23)CCCC1=CC=C1C=C(C(C)(C)C)Oc2cc(N(Cc3cn(CCC[N+](C)(C)CCCS(=O)(=O)[O-])nn3)Cc3cn(CCC[N+](C)(C)CCCS(=O)(=O)[O-])nn3)ccc21.[Cl-] [ZwitChrom7],concentration up to which monomeric absorption is observed,[2],up to 8 μM
